The source of these data is the supplement of paper PMC10849652.

Amino acid sequences for entries named in this document (tags omitted). A change or cut given only in a name is not applied to a line headed by its entry.
UniProt Q9H089: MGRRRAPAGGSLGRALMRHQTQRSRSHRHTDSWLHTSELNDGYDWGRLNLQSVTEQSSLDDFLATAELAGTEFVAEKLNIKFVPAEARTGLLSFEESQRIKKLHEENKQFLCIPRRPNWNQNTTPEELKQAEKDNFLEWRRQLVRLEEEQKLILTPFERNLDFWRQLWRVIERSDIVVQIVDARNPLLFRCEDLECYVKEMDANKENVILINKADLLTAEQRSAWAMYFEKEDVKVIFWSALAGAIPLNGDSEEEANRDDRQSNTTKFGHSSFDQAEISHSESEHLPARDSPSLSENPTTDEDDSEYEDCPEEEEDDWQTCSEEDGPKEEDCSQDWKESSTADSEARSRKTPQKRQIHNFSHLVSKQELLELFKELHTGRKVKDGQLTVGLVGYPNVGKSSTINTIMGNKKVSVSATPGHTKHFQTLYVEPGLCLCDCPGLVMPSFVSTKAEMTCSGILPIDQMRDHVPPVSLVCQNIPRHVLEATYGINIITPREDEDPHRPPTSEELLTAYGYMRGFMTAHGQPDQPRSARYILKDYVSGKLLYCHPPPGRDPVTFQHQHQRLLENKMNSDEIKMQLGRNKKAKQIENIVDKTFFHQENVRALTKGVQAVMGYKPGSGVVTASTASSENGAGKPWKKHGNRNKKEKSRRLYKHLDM
UniProt Q9BQ69: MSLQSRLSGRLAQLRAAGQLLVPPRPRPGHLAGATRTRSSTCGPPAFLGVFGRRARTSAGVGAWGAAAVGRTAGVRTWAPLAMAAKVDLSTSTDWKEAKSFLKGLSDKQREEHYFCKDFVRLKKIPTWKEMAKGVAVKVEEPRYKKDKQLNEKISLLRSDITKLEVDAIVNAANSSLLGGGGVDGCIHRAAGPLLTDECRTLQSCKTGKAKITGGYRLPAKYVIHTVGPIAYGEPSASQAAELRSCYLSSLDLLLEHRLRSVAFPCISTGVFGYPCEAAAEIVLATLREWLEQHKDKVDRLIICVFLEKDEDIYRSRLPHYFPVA
UniProt Q16539, whole entry, looked up: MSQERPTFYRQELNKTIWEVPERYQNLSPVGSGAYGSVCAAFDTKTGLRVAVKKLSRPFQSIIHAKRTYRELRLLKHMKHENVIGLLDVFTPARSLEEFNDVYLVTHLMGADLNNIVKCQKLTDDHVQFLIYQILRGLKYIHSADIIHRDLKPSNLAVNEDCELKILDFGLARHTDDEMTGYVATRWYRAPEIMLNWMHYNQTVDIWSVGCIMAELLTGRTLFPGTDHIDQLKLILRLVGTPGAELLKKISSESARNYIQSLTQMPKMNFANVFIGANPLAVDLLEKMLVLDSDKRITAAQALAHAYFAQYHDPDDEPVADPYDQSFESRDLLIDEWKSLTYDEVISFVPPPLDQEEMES
UniProt Q7L1W4: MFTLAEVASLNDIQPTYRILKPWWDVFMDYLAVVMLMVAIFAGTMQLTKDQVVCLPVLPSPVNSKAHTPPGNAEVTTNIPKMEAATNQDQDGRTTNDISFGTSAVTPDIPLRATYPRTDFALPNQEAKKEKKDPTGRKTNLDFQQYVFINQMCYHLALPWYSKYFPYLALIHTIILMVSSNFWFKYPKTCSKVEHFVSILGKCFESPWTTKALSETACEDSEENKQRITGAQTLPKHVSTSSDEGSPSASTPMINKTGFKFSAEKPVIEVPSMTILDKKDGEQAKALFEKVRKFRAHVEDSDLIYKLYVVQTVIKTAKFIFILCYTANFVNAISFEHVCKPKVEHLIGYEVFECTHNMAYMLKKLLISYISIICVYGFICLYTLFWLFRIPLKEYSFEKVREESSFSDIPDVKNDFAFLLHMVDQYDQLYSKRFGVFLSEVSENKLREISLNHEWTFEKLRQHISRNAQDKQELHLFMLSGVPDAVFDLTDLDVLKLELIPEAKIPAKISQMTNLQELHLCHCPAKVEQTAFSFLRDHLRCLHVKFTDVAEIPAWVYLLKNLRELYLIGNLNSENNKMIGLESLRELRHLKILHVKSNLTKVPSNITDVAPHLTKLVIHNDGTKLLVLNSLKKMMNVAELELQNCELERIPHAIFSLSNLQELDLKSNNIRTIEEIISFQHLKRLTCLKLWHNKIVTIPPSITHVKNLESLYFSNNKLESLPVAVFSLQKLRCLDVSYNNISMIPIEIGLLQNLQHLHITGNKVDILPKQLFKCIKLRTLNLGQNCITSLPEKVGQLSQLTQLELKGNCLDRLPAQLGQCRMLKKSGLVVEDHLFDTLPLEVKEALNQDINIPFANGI
UniProt P43361: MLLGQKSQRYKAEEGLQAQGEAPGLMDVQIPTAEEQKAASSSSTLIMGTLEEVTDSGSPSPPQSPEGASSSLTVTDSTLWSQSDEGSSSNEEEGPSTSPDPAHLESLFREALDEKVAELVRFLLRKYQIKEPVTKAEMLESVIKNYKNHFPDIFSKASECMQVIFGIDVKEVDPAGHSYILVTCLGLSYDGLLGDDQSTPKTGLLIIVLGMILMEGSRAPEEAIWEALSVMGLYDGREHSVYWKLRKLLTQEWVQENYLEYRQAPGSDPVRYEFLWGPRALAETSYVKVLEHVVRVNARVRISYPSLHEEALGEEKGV

Assay in all cases: log2 fold change, soluble protein after heating vs DMSO (PISA); higher = thermal stabilisation; K562 cells, 10 uM, 30 min; active = over 0.2 and 3.5 SD of the protein, either way, in both replicates (recomputed)
Compound in experiment [1]: C#Cc1cccc(Nc2ncnc3cc(OCCOC)c(OCCOC)cc23)c1 [erlotinib]
The gist of the method: (§1)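 Quantification of soluble protein used TMTpro 16plex LC-MS/MS, with channel sums equalised. Samples were the supernatant after 21,000xg for 90 min of pooled aliquots from K562 cells (2×10^6 cells/mL) treated with 10 μM compound for 30 min, heated for 3 min over 48°C-58°C, and extracted in PBS with 0.5% NP-40 at 4°C. Values, from duplicates, describe thermal stability against control samples on a log2 fold-change scale.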

Compound in experiment [2]: C/C(=N\NC(=O)C1=CC(=CC=C1)S(=O)(=O)N2CCOCC2)/C3=C(C=CC(=C3)Cl)O
In outline: as §1

Compound in experiment [3]: C1=CC(=C(C=C1Cl)C2=NC3=NC=CN=C3C(=N2)NC4=CC=NC=C4)F
In outline:
as §1

Compound in experiment [4]: C1=CC(=CC=C1C2=NC3=C(N2)C=C(C=C3)C(=O)N)OC4=CC=C(C=C4)Cl
In outline:
as §1

Compound in experiment [5]: C1=CC2=C(C=CC(=C2)/C=C\3/C(=O)NC(=NCC4=CC=CS4)S3)N=C1
The gist of the method:
as §1

Compound in experiment [6]: C1=CC=C(C=C1)C2=NC(=C(N2)C3=CC=NC=C3)C4=CC(=C(C=C4)Cl)O
In outline: as §1

Compound in experiment [7]: C1=CC=C2C(=C1)C3=NNC4=CC=CC(=C43)C2=O
In outline: as §1

Compound in experiment [8]: C1CCN(C1)C(=O)NC2=CC=CC(=C2)NC3=NC=C(C(=N3)NCCC4=CN=CN4)Br
The gist of the method: as §1

Compound in experiment [9]: C1CN(CCC1(CC2=CC=C(C=C2)Cl)N)C3=NC=NC4=C3C=CN4
The gist of the method: as §1

Compound in experiment [10]: C1=CC2=NC=CN=C2C=C1/C=C/3\C(=O)NC(=O)S3
In outline:
as §1

This is one part of the list.

On to LSG1 (UniProt Q9H089), for which the log2 fold change is inactive: 0.11 in experiment [1]; inactive: 0.019 in experiment [2]; inactive: -0.298 in experiment [3]; inactive: 0.065 in experiment [4]; inactive: -0.091 in [5]; inactive: 0.028 in experiment [6]. Moreover, the log2 fold change is inactive: 0.132 in experiment [7], inactive: 0.072 in experiment [8] and inactive: -0.003 in experiment [9].
Regarding MACROD1 (UniProt Q9BQ69), the log2 fold change in experiment [1] was inactive: 0.088; in experiment [2], inactive: 0.264; in experiment [3] it was inactive: 0.095; in experiment [4] it was inactive: 0.032; in experiment [5], inactive: 0.228; in experiment [10], inactive: 0.083. Besides, the log2 fold change was inactive: 0.128 in experiment [6], inactive: -0.004 in experiment [7], inactive: -0.059 in [8] and inactive: 0.069 in experiment [9].
MAPK14 (UniProt Q16539): the log2 fold change in experiment [1] is inactive: 0.238; in experiment [2] it was inactive: 0.106; in experiment [4], inactive: -0.116; in [5], inactive: -0.054; in [10], inactive: 0.001; in [6], active: 1.04. Also, the log2 fold change is inactive: 0.174 in experiment [7], inactive: 0.051 in experiment [8] and inactive: -0.072 in experiment [9].
As for LRRC8D (UniProt Q7L1W4), the log2 fold change is inactive: -0.209 in [1]; inactive: -0.046 in experiment [2]; inactive: -0.404 in experiment [3]; inactive: 0.005 in experiment [4]; inactive: -0.091 in [5]; inactive: -0.043 in experiment [6]. The log2 fold change is inactive: 0.108 in [7], inactive: -0.222 in experiment [8] and inactive: -0.148 in experiment [9].
In the case of MAGEA8 (UniProt P43361), the log2 fold change in experiment [1] was inactive: 0.033; in experiment [2], inactive: 0.038; in experiment [4] it was inactive: -0.075; in experiment [5] it was inactive: -0.04; in experiment [10] it was inactive: 0.132; in [6], inactive: -0.028. The log2 fold change in experiment [7] was inactive: -0.098; in experiment [8] it was inactive: 0.052; in [9] it was inactive: 0.099.
